Data taken from patent publication US8461328B2, “Tricyclic heterocyclic compounds, compositions and methods of use thereof” (Genentech, Inc., priority 2010, dated 2013).
Some results were stated once for a whole list of compounds, not compound by compound.

The chains behind the UniProt entries cited, without tags or fusion partners. Residues count along the entry.
UniProt P23458, 852-1154: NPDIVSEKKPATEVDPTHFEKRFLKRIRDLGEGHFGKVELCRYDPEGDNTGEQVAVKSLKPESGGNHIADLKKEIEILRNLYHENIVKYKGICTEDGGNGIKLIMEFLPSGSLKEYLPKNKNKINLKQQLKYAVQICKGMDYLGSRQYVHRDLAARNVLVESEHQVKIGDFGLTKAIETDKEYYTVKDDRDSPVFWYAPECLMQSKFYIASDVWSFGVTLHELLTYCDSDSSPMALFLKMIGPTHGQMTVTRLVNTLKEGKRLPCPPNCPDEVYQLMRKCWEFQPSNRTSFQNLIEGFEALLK

Target: T1, human JAK1 kinase domain (Homo sapiens, UniProt P23458)
T1 construct: made in house; host or cells: SF9 insect cells (baculovirus)
Assay: JAK1 inhibition assay (Example B), Caliper LabChip peptide phosphorylation
Format: biochemical
Conditions: 1.5 nM JAK1, 25 μM ATP, Morrison tight binding model; read-out: Ki in a JAK1 kinase activity assay (Example B)

Compound | Ki [nM]
N#Cc1cccc(CC(=O)N2CC[C@@H](n3cnc4cnc5[nH]ccc5c43)C2)c1 [Example 189, 3-{2-oxo-2-[(R)-3-(6H-1,2,3,5,6-tetraaza-as-indacen-1-yl)-pyrrolidin-1-yl]-ethyl}-benzonitrile] | < 500
CS(=O)(=O)N1CC[C@@H](n2cnc3cnc4[nH]ccc4c32)C1 [Example 190, 1-((R)-1-Methanesulfonyl-pyrrolidin-3-yl)-1,6-dihydro-1,2,3,5,6-tetraaza-as-indacene] | < 500
N#Cc1ccc(CN2CC[C@@H](n3cnc4cnc5[nH]ccc5c43)C2)cc1 [Example 191, 4-[(R)-3-(6H-1,2,3,5,6-Tetraaza-as-indacen-1-yl)-pyrrolidin-1-ylmethyl]-benzonitrile] | < 500
COCC(=O)N1CCC(n2cnc3cnc4[nH]ccc4c32)CC1 [Example 192, 2-Methoxy-1-[4-(6H-1,2,3,5,6-tetraaza-as-indacen-1-yl)-piperidin-1-yl]-ethanone] | < 500
CN1CCN(CC(=O)N2CCC(n3cnc4cnc5[nH]ccc5c43)CC2)CC1 [Example 193, 2-(4-Methyl-piperazin-1-yl)-1-[4-(6H-1,2,3,5,6-tetraaza-as-indacen-1-yl)-piperidin-1-yl]-ethanone] | < 500
O=S(=O)(CCO)N1CCC(n2cnc3cnc4[nH]ccc4c32)CC1 [Example 194, 2-[4-(6H-1,2,3,5,6-Tetraaza-as-indacen-1-yl)-piperidine-1-sulfonyl]-ethanol] | < 500
N#CCC1(N2CCC(n3cnc4cnc5[nH]ccc5c43)CC2)COC1 [Example 195, {3-[4-(6H-1,2,3,5,6-Tetraaza-as-indacen-1-yl)-piperidin-1-yl]-oxetan-3-yl}-acetonitrile] | < 500
c1cc2c(ncc3ncn(C4CCc5[nH]ncc5C4)c32)[nH]1 (stereo not drawn) [Example 198, 1-(4,5,6,7-Tetrahydro-1H-indazol-5-yl)-1,6-dihydro-1,2,3,5,6-tetraaza-as-indacene] | < 500
c1ccc(CN2CCC(n3c(Cn4cccn4)nc4cnc5[nH]ccc5c43)CC2)cc1 [Example 201, 1-(1-Benzyl-piperidin-4-yl)-2-pyrazol-1-ylmethyl-1,6-dihydro-1,2,3,5,6-tetraaza-as-indacene] | < 500
CN(Cc1nc2cnc3[nH]ccc3c2n1C1CCN(Cc2ccccc2)CC1)S(C)(=O)=O [Example 203, N-[1-(1-Benzyl-piperidin-4-yl)-1,6-dihydro-1,2,3,5,6-tetraaza-as-indacen-2-ylmethyl]-N-methyl-methanesulfonamide] | < 500
c1cnn(Cc2nc3cnc4[nH]ccc4c3n2C2CCNCC2)c1 [Example 204, 1-Piperidin-4-yl-2-pyrazol-1-ylmethyl-1,6-dihydro-1,2,3,5,6-tetraaza-as-indacene] | < 500
N#CCCN1CCC(n2c(Cn3cccn3)nc3cnc4[nH]ccc4c32)CC1 [Example 205, 3-[4-(2-Pyrazol-1-ylmethyl-6H-1,2,3,5,6-tetraaza-as-indacen-1-yl)-piperidin-1-yl]-propionitrile] | < 500
Cn1nccc1C(=O)NCc1nc2cnc3[nH]ccc3c2n1C1CCN(CCC#N)CC1 [Example 209, 2-Methyl-2H-pyrazole-3-carboxylic acid {1-[1-(2-cyano-ethyl)-piperidin-4-yl]-1,6-dihydro-1,2,3,5,6-tetraaza-as-indacen-2-ylmethyl}-amide] | < 500
Cc1nc2cnc3[nH]ccc3c2n1C1CCS(=O)(=O)CC1 [Example 210, 1-(1,1-Dioxo-hexahydro-1-thiopyran-4-yl)-2-methyl-1,6-dihydro-1,2,3,5,6-tetraaza-as-indacene] | < 500
CS(=O)(=O)Nc1ccc(N2CCC(n3cnc4cnc5[nH]ccc5c43)CC2)nc1 [Example 211, N-[4-(6H-1,2,3,5,6-Tetraaza-as-indacen-1-yl)-3,4,5,6-tetrahydro-2H-[1,2]bipyridinyl-5′-yl]-methanesulfonamide] | < 500
FCCN1CCC(n2cnc3cnc4[nH]ccc4c32)CC1 [Example 212, 1-[1-(2-Fluoro-ethyl)-piperidin-4-yl]-1,6-dihydro-1,2,3,5,6-tetraaza-as-indacene] | < 500
CC(C)N[C@H]1CC[C@H](n2cnc3cnc4[nH]ccc4c32)CC1 [Example 214, Isopropyl-[4-(6H-1,2,3,5,6-tetraaza-as-indacen-1-yl)-cyclohexyl]-amine] | < 500
CC(C)CC(=O)N[C@H]1CC[C@H](n2cnc3cnc4[nH]ccc4c32)CC1 [Example 215, 3-Methyl-N-[4-(6H-1,2,3,5,6-tetraaza-as-indacen-1-yl)-cyclohexyl]-butyramide] | < 500
O=C(Cc1nc2cnc3[nH]ccc3c2n1C1CCN(Cc2ccccc2)CC1)N1CCC(F)(F)CC1 [Example 217, 2-[1-(1-Benzyl-piperidin-4-yl)-1,6-dihydro-1,3,5,6-tetraaza-as-indacen-2-yl)-1-(4,4-difluoro-piperidin-1-yl)-ethanone] | < 500
O=C(N[C@H]1CC[C@H](n2cnc3cnc4[nH]ccc4c32)CC1)c1ccccc1 [Example 218, N-[4-(6H-1,3,5,6-Tetraaza-as-indacen-1-yl)-cyclohexyl]-benzamide] | < 500

Compound | Ki [nM]
O=C(CC1CC1)N1CCC[C@@H](n2cnc3cnc4[nH]ccc4c32)C1 [Example 220, 2-Cyclopropyl-1-[(R)-3-(6H-1,3,5,6-tetraaza-as-indacen-1-yl)-piperidin-1-yl]-ethanone] | < 500
N#CC1(C(=O)N2CCC[C@@H](n3cnc4cnc5[nH]ccc5c43)C2)CC1 [Example 221, 1-[(R)-3-(6H-1,3,5,6-Tetraaza-as-indacen-1-yl)-piperidine-1-carbonyl]-cyclopropanecarbonitrile] | < 500
O=C(Cc1ccccc1)N1CCC[C@@H](n2cnc3cnc4[nH]ccc4c32)C1 [Example 222, 2-Phenyl-1-[(R)-3-(6H-1,3,5,6-tetraaza-as-indacen-1-yl)-piperidin-1-yl]-ethanone] | < 500
CC(C)c1nc2cnc3[nH]ccc3c2n1C1CCN(Cc2ccccc2)CC1 [Example 223, 1-(1-Benzyl-piperidin-4-yl)-2-isopropyl-1,6-dihydro-1,3,5,6-tetraaza-as-indacene] | < 500
CC(C)Cc1nc2cnc3[nH]ccc3c2n1C1CCN(Cc2ccccc2)CC1 [Example 224, 1-(1-Benzyl-piperidin-4-yl)-2-isobutyl-1,6-dihydro-1,3,5,6-tetraaza-as-indacene] | < 500
O=C(CN1CCC[C@@H](n2cnc3cnc4[nH]ccc4c32)C1)c1ccccc1 [Example 225, 1-Phenyl-2-[(R)-3-(6H-1,3,5,6-tetraaza-as-indacen-1-yl)-piperidin-1-yl]-ethanone] | < 500
CC1(C)CC1C(=O)N1CCC[C@@H](n2cnc3cnc4[nH]ccc4c32)C1 (stereo partly drawn) [Example 226, (2,2-Dimethyl-cyclopropyl)-[(R)-3-(6H-1,3,5,6-tetraaza-as-indacen-1-yl)-piperidin-1-yl]-methanone] | < 500
CC1(C(=O)N2CCC[C@@H](n3cnc4cnc5[nH]ccc5c43)C2)CC1 [Example 227, (1-Methyl-cyclopropyl)-[(R)-3-(6H-1,3,5,6-tetraaza-as-indacen-1-yl)-piperidin-1-yl]-methanone] | < 500
O=C(N1CCC[C@@H](n2cnc3cnc4[nH]ccc4c32)C1)C1(C(F)(F)F)CC1 [Example 228, [(R)-3-(6H-1,3,5,6-tetraaza-as-indacen-1-yl)-piperidin-1-yl]-(1-trifluoromethyl-cyclopropyl)-methanone] | < 500
N#CCCN1CCC(n2nnc3cnc4[nH]ccc4c32)CC1 [Example 232, 3-[4-(6H-1,2,3,5,6-Pentaaza-as-indacen-1-yl)-piperidin-1-yl]-propionitrile] | < 500
CS(=O)(=O)N1CCC(n2nnc3cnc4[nH]ccc4c32)CC1 [Example 233, 1-(1-Methanesulfonyl-piperidin-4-yl)-1,6-dihydro-1,2,3,5,6-pentaaza-as-indacene] | < 500
c1ccc(CCN2CCC[C@@H](n3cnc4cnc5[nH]ccc5c43)C2)cc1 [Example 234, 1-((R)-1-Phenthyl-piperidin-3-yl)-1,6-dihydro-1,3,5,6-tetraaza-as-indacene] | < 500
OCc1nc2cnc3[nH]ccc3c2n1C1CCNCC1 [Example 236, (1-Piperidin-4-yl-1,6-dihydro-1,3,5,6-tetraaza-as-indacen-2-yl)-methanol] | < 500
O=C(c1nc2cnc3[nH]ccc3c2n1C1CCN(Cc2ccccc2)CC1)N1CCOCC1 [Example 237, [1-(1-Benzyl-piperidin-4-yl)-1,6-dihydro-1,3,5,6-tetraaza-as-indacen-2-yl]-morpholin-4-yl-methanone] | < 500
Cc1nc2cnc3[nH]ccc3c2n1[C@@H]1CCCN(Cc2ccccc2)C1 [Example 238, (R)-1-(1-Benzyl-piperidin-3-yl)-2-methyl-1,6-dihydro-1,3,5,6-tetraaza-as-indacene] | < 500
N#CCCN1CCC(n2c(CO)nc3cnc4[nH]ccc4c32)CC1 [Example 239, 3-[4-(2-Hydroxymethyl-6H-1,3,5,6-tetraaza-as-indacen-1-yl)-piperidin-1-yl]-propionitrile] | < 500
N#CCCN1CCC(n2c(CC(=O)N3CCC(F)(F)CC3)nc3cnc4[nH]ccc4c32)CC1 [Example 240, 3-(4-{2-[2-(4,4-Difloro-piperidin-1-yl)-2-oxo-ethyl]-6H-1,3,5,6-tetraaza-as-indacen-1-yl)-piperidin-1-yl]-propionitrile] | < 500
CC(C)(C)OC(=O)N1CCC[C@@H]1C(=O)N1CCC(n2cnc3cnc4[nH]ccc4c32)CC1 [Example 242, (R)-2-[4-(6H-1,3,5,6-Tetraaza-as-indacen-1-yl)-piperidine-1-carbonyl]-pyrrolidine-1-carboxylic acid tert-butyl ester] | < 500
CC(C)(C)OC(=O)N1CC(F)(F)C[C@H]1C(=O)N1CCC(n2cnc3cnc4[nH]ccc4c32)CC1 [Example 243, (S)-4,4-Difluoro-2-[4-(6H-1,3,5,6-tetraaza-as-indacen-1-yl)-piperidine-1-carbonyl]-pyrrolidine-1 carboxylic acid tert-butyl ester] | < 500
